Test results: the supplement of paper PMC7666118
This is one part of the list.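 The calls were made as follows: active = dose-dependent thermal stabilisation significant by F-test of dose-response against flat model at 10% FDR; inactive = not significant.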

Protein sequences, listed by entry. Tags and fused reporters are not part of them. Lines headed by an entry give the natural chain unless they say otherwise; changes in a name come on top.
UniProt Q9H993: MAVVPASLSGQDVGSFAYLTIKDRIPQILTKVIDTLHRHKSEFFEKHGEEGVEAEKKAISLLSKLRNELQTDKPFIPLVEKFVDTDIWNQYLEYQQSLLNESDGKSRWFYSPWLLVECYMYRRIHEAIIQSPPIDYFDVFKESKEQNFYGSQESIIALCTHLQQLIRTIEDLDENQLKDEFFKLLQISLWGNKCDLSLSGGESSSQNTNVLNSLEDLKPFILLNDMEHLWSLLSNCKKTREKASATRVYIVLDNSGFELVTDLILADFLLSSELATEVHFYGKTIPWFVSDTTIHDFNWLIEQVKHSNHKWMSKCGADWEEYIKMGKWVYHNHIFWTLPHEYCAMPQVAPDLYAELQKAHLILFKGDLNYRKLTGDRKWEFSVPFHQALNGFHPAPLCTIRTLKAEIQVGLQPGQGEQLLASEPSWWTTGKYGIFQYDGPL
UniProt Q86UU0: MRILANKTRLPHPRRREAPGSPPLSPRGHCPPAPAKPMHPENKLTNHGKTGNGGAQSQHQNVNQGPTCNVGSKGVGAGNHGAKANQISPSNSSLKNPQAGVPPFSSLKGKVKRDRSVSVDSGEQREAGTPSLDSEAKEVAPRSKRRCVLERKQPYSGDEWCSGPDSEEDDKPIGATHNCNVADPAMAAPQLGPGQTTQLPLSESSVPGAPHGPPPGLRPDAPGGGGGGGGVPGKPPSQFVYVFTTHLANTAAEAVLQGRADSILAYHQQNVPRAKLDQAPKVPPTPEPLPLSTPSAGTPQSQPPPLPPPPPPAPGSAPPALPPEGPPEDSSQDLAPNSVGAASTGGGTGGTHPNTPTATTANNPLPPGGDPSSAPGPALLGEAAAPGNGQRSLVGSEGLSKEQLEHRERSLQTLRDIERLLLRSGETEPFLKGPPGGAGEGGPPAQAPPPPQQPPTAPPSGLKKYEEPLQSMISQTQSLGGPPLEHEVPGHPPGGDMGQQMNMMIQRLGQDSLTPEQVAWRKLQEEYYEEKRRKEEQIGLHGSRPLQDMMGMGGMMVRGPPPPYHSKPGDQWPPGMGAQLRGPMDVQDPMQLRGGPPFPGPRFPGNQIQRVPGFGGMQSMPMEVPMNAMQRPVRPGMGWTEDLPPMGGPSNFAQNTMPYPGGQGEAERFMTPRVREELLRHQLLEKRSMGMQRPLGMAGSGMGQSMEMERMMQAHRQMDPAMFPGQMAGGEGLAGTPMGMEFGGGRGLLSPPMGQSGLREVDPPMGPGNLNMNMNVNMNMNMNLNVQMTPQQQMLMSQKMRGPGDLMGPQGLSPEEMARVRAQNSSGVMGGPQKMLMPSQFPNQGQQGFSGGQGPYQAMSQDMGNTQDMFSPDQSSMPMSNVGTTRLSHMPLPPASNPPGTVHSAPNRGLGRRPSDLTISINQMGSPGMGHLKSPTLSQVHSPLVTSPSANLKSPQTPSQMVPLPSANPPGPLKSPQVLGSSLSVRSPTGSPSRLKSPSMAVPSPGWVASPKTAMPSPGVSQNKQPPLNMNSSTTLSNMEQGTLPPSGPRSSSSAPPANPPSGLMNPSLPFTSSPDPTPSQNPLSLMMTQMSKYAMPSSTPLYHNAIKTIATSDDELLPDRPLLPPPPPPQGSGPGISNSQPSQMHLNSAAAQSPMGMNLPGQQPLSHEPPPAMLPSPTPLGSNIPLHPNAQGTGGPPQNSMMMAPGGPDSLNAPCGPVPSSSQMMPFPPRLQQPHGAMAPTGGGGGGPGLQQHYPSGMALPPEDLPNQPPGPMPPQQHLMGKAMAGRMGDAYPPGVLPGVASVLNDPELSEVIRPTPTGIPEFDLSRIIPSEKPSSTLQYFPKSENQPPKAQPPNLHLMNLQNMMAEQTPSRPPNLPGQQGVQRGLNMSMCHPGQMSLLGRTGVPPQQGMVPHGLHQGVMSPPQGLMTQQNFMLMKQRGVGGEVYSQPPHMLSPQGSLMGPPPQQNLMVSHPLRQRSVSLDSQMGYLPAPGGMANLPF
UniProt Q8N4J0: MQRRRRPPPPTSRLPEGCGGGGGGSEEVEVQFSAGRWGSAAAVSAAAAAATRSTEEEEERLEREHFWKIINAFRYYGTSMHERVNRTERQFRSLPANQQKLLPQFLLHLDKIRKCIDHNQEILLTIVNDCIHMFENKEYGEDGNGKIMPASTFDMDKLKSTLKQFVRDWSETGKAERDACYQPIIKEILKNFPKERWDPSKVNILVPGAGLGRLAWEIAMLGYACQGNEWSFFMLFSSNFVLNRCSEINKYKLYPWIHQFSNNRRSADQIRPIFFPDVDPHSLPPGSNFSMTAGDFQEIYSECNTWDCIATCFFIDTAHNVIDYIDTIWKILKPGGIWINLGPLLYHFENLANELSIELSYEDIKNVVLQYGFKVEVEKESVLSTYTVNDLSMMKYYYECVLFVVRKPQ
UniProt Q6ZSJ8: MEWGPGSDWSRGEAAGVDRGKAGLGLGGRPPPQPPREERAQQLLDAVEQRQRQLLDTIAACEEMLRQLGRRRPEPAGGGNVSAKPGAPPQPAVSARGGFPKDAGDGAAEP
UniProt Q13137: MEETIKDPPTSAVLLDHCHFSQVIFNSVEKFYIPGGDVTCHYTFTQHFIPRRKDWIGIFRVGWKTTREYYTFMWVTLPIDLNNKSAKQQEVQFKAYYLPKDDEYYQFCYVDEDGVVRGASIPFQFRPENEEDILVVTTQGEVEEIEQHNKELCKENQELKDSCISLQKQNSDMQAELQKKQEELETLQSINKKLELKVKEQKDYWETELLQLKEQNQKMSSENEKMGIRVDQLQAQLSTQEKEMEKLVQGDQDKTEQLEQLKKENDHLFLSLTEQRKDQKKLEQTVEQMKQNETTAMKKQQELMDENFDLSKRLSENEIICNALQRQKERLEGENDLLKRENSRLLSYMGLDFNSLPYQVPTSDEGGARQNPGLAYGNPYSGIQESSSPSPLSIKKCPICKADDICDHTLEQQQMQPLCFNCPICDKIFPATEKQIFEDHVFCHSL
UniProt Q53S33: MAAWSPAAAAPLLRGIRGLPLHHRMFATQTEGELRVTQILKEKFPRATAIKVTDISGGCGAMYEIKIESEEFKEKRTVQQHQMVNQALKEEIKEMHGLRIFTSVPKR
UniProt Q9Y376: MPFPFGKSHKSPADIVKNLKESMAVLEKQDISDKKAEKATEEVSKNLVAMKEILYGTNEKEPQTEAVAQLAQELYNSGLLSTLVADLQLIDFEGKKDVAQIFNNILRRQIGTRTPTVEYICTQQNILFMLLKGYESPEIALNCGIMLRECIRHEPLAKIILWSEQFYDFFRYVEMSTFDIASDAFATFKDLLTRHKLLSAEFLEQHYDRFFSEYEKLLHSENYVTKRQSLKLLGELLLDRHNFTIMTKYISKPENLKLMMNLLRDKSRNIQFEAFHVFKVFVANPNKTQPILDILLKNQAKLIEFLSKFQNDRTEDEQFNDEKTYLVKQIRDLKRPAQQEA
UniProt Q9P287, whole entry: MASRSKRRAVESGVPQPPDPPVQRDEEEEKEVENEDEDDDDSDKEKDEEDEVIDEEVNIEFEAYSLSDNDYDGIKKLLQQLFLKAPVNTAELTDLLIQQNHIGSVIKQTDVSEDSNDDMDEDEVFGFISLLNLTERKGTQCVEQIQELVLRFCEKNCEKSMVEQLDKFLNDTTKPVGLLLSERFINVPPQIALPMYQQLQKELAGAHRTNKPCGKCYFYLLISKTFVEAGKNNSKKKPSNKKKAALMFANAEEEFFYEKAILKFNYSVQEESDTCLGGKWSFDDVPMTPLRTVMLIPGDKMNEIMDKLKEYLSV
UniProt Q9BXK5, whole entry: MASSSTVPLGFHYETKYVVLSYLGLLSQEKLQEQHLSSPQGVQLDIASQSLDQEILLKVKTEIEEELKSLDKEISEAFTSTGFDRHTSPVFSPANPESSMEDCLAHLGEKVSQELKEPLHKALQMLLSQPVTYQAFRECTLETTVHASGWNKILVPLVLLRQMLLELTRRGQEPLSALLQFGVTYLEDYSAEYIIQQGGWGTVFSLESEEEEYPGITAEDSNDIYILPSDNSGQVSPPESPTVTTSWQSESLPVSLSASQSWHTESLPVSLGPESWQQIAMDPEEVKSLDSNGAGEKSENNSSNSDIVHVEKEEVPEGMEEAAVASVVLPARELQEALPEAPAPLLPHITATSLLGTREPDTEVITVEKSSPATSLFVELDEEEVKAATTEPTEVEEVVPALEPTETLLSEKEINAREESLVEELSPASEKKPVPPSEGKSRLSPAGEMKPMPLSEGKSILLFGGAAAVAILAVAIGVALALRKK
UniProt Q9H8G2: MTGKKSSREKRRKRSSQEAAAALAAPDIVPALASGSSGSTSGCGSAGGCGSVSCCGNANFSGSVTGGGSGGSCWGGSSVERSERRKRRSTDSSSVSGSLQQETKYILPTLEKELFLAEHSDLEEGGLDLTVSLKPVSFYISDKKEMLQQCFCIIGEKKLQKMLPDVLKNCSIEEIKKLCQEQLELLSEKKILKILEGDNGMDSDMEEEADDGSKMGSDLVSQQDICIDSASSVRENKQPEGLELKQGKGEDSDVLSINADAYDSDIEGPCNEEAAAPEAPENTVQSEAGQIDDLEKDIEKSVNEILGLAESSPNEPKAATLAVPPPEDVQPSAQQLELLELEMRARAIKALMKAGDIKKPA
UniProt O15382: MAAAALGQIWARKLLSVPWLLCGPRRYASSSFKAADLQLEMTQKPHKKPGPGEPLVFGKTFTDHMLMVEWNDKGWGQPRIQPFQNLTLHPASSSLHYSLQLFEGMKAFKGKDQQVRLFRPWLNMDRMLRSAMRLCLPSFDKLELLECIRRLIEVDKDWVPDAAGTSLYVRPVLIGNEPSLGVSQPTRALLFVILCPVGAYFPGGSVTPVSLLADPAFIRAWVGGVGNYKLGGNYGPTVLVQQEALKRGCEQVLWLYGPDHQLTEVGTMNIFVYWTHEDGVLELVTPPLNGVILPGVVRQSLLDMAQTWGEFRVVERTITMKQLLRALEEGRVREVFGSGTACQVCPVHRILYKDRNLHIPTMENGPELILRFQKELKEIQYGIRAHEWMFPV
UniProt Q9H1Y0: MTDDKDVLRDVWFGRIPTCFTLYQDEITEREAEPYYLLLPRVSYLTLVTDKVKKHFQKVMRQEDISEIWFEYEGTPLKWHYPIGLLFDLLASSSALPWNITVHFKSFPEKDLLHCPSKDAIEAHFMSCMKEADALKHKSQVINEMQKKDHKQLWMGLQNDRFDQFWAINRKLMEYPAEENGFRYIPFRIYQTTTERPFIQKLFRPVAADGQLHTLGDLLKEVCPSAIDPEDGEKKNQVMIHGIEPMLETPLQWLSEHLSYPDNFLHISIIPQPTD
UniProt P07384: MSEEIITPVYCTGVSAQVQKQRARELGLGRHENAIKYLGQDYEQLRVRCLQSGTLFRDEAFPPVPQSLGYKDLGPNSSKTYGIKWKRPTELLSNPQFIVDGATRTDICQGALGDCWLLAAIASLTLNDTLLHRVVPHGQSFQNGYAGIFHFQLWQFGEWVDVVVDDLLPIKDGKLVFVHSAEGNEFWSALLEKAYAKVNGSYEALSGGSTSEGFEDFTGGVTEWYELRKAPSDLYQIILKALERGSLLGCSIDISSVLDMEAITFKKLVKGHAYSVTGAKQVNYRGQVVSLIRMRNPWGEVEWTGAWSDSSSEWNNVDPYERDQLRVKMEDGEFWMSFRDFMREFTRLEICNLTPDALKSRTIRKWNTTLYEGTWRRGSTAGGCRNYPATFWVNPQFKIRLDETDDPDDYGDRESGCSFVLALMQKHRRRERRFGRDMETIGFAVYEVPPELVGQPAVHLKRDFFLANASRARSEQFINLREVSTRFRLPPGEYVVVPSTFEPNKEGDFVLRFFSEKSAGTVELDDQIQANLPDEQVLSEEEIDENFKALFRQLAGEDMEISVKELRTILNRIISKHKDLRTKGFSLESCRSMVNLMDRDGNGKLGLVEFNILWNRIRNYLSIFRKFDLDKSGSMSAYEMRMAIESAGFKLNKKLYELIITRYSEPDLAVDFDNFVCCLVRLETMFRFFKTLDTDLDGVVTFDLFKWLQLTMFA
UniProt Q9H3H3: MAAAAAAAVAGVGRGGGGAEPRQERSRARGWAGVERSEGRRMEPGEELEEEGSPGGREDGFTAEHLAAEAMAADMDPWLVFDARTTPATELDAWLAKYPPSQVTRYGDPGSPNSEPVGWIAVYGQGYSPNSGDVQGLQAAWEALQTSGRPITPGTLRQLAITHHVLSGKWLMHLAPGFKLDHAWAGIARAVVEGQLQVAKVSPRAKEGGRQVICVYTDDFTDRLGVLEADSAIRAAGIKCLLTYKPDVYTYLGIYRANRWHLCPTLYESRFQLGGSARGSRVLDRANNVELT
UniProt P40121: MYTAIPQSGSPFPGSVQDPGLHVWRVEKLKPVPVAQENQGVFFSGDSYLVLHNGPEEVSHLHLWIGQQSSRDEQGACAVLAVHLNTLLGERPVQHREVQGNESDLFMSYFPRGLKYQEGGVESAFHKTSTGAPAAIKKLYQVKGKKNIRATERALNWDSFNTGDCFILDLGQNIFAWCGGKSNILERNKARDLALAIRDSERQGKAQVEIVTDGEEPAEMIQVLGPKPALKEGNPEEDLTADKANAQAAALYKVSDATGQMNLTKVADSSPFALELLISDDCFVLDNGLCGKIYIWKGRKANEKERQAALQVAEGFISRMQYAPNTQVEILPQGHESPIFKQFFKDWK

Compound: Nc1nc2c(ncn2[C@@H]2O[C@H](COP(=O)(O)OP(=O)(O)OP(=O)(O)O)[C@@H](O)[C@H]2O)c(=O)[nH]1
Test: dose-dependent thermal stabilisation call (2D-TPP, DLPTP, 10% FDR) (binary (1 = stabilised)); higher = stabilised by the compound
Conditions: system: Jurkat gel-filtered lysate; concentration range 1-500 µM
Description: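 2D thermal proteome profiling in gel-filtered Jurkat E6.1 lysate (2 mg/ml) treated with NaGTP (0, 1, 10, 100, 500 uM) for 10 min at room temperature, then heated 3 min at one of 12 temperatures (42-63.9 C). Soluble protein was quantified by TMT10 MS. The value is the DLPTP call of the paper: dose-dependent thermal stabilisation over all temperatures at 10% FDR (F-test of a dose-response against a flat model); one experiment, one call per tested protein.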

dose-dependent thermal stabilisation call, active:
ARMT1 (UniProt Q9H993) 1
BPGM (UniProt P07738) 1
ARPC1A (UniProt Q92747) 1
ARPC2 (UniProt O15144) 1
ASNA1 (UniProt O43681) 1

dose-dependent thermal stabilisation call, inactive:
BCL9L (UniProt Q86UU0) 0
C18orf25 (UniProt Q96B23) 0
CACYBP (UniProt Q9HB71) 0
BLM (UniProt P54132) 0
C1orf174 (UniProt Q8IYL3) 0
CARNMT1 (UniProt Q8N4J0) 0
C12orf29 (UniProt Q8N999) 0
C1orf122 (UniProt Q6ZSJ8) 0
CALCOCO2 (UniProt Q13137) 0
BRD2 (UniProt P25440) 0
ATG101 (UniProt Q9BSB4) 0
BOLA3 (UniProt Q53S33) 0
CAB39 (UniProt Q9Y376) 0
C14orf159 (UniProt Q7Z3D6) 0
BCCIP (UniProt Q9P287) 0
BTF3 (UniProt P20290) 0
BCL2L13 (UniProt Q9BXK5) 0
BYSL (UniProt Q13895) 0
BRD3 (UniProt Q15059) 0
CARS (UniProt P49589) 0
ASPSCR1 (UniProt Q9BZE9) 0
BLMH (UniProt Q13867) 0
BRAT1 (UniProt Q6PJG6) 0
CAAP1 (UniProt Q9H8G2) 0
BCAT2 (UniProt O15382) 0
ATG5 (UniProt Q9H1Y0) 0
ARPC5L (UniProt Q9BPX5) 0
CAPZA2 (UniProt P47755) 0
BCAS3 (UniProt Q9H6U6) 0
CAPN1 (UniProt P07384) 0
C11orf68 (UniProt Q9H3H3) 0
ATG13 (UniProt O75143) 0
CAPG (UniProt P40121) 0
ASL (UniProt P04424) 0
C16orf70 (UniProt Q9BSU1) 0

Quoted at random: 3 entries already listed
dose-dependent thermal stabilisation call, inactive:
BLM (UniProt P54132) 0
BOLA3 (UniProt Q53S33) 0
CAPN1 (UniProt P07384) 0
